Data published in article PMC8557881.
No constants are given. Whether binding was seen depends on the method and setting. In cells and extracts the contact can be indirect. A result given as binding can be weak or reduced; the word gives no strength.

Biological target: T1, UL84 protein of HCMV strain AD169 (infected cells) (human cytomegalovirus (HCMV) strain AD169) (UniProt P16727)
T1 sequence: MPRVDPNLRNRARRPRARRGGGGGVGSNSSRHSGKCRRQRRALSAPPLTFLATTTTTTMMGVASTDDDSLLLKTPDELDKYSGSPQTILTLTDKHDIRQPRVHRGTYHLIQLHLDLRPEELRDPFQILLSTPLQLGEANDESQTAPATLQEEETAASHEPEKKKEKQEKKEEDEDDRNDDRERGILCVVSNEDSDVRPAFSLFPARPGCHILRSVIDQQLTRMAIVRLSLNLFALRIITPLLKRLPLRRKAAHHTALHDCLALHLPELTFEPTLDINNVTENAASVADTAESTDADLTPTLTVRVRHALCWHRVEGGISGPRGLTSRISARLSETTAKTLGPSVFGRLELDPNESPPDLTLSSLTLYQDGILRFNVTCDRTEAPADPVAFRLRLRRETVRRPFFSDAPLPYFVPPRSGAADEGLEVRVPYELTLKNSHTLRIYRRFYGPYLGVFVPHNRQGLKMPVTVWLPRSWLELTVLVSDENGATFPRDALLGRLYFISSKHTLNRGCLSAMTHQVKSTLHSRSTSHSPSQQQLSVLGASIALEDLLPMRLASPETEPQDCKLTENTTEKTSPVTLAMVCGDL
Test: co-IP; HF cells infected with AD169, FIX or TB40E (MOI = 1), lysate harvested at 6 dpi (NP-40 lysis buffer or RIPA buffer, sonicated); IP with UL84 antibody and protein G Dynabeads at 4°C; blot probed with IE2 antibody, reprobed with UL84 antibody

| Substance | binding |
| --- | --- |
| IE2-40 of HCMV strain AD169 (infected cells) | binds |
| IE2-60 of HCMV strain AD169 (infected cells) | binds |
